Reference: PubChem BioAssay AID282 (DTP/NCI, 2004)
The list is a part of this screen's results and no random one: it is rich in T/C values a quarter to a half above the control, in often repeated tests (any T/C) and in doses without a T/C. Other doses and runs of a compound stand elsewhere. T/C is the treated group as % of the vehicle group. Some entries give survivors of the animals treated and no T/C: the source files T/C as zero there, which appears to mark a toxic dose or a test without result, not a measured value. Some survivor counts are full or nearly so, which does not show that the dose was tolerated: the source hardly ever lists a survival T/C far under the control, and the zero likely stands for such cases as well. Survivors were counted at the toxicity check, usually on the fifth day, unless a day is given; later deaths do not show. Schedule codes are those of the source, read here as Q, the interval in days (D) or hours (H), X, the number of doses. Some entries were tested several times; the values are given in rising order. Some schedule codes hold Z or #, which are not explained here. For survival time, this PubChem deposit counts one and a half times the control or more as active, and values a quarter to a half above the control carry no call in these data; other NCI protocols may use other cut-offs.

Tested on: BDF1 mice, L1210 terephthalanilide-resistant leukemia ip, survival T/C
Assay: NCI In Vivo Anticancer Drug Screen. Data for tumor model L1210 Leukemia resistant to A Terephthalanilide; NSC 38280 (intraperitoneal) in B6D2F1 (BDF1) mice
Details: T/C endpoint: mean survival time, higher T/C = longer survival
Protocol: The antitumor activity of compounds was measured in mice bearing transplantable tumors. Survival or tumor size were measured and the results are expressed as the measurement made in the treated group (T) divided by the measurement made in the vehicle treated control group (C). The tumor model used in this assay is L1210 Leukemia resistant to A Terephthalanilide; NSC 38280 (intraperitoneal) in B6D2F1 (BDF1) mice

[1] = dose: 10.0 mg/kg/injection, schedule: Q01DX010 (ip), vehicle: saline

## O=C(Nc1ccc(C2=NCCCN2)cc1)c1ccc(NC(=O)c2ccc(C3=NCCCN3)cc2)cc1
dose: 4.0 mg/kg/injection, schedule: Q01DX010 (ip), vehicle: other
  T/C: 128 % of control
dose: 8.0 mg/kg/injection, schedule: Q01DX010 (ip), vehicle: other
  T/C: 132 % of control
dose: 16.0 mg/kg/injection, schedule: Q01DX010 (ip), vehicle: other
  survivor count: 5 of 6
dose: 32.0 mg/kg/injection, schedule: Q01DX010 (ip), vehicle: other
  survivor count: 0 of 6

## CCN(CC)CCNc1ccc(C)c2sc3ccccc3c(=O)c12
dose: 50.0 mg/kg/injection, schedule: Q01DX Z (ip), vehicle: water
  T/C: 136 % of control
dose: 100.0 mg/kg/injection, schedule: Q01DX010 (ip), vehicle: saline
  T/C: 133 % of control
dose: 200.0 mg/kg/injection, schedule: Q01DX010 (ip), vehicle: saline
  survivor count: 6 of 6
dose: 200.0 mg/kg/injection, schedule: Q01DX Z (ip), vehicle: water
  survivor count: 1 of 6

## CCCSc1ncnc2nc[nH]c12
dose: 175.0 mg/kg/injection, schedule: Q01DX Z (ip), vehicle: other
  T/C: 136 % of control
dose: 250.0 mg/kg/injection, schedule: Q01DX010 (ip), vehicle: saline
  survivor count: 5 of 6 and 6 of 6
dose: 350.0 mg/kg/injection, schedule: Q01DX Z (ip), vehicle: other
  survivor count: 0 of 6

## C#CCN(C)Cc1ccccc1
dose: 400.0 mg/kg/injection, schedule: Q01DX010 (ip), vehicle: saline
  survivor count: 3 of 6

## C[n+]1ccc(NC(=O)c2ccc(NC(=O)c3cccc(C(=O)Nc4ccc(C(=O)Nc5cc[n+](C)cc5)cc4)c3)cc2)cc1
[1]
  survivor count: 7 of 7
dose: 20.0 mg/kg/injection, schedule: Q01DX010 (ip), vehicle: saline
  survivor count: 7 of 7
dose: 40.0 mg/kg/injection, schedule: Q01DX010 (ip), vehicle: saline
  survivor count: 5 of 6 and 7 of 7
dose: 80.0 mg/kg/injection, schedule: Q01DX010 (ip), vehicle: saline
  survivor count: 0 of 6
dose: 160.0 mg/kg/injection, schedule: Q01DX010 (ip), vehicle: saline
  survivor count: 0 of 6

## NC(=O)N(CCCl)N=O
dose: 2.0 mg/kg/injection, schedule: Q01DX010 (ip), vehicle: saline
  survivor count: 6 of 6
dose: 4.0 mg/kg/injection, schedule: Q01DX010 (ip), vehicle: saline
  survivor count: 6 of 6
dose: 4.0 mg/kg/injection, schedule: Q01DX Z (ip), vehicle: saline
  T/C: 145 % of control
dose: 8.0 mg/kg/injection, schedule: Q01DX Z (ip), vehicle: saline
  survivor count: 6 of 6
dose: 16.0 mg/kg/injection, schedule: Q01DX Z (ip), vehicle: saline
  survivor count: 6 of 6
dose: 32.0 mg/kg/injection, schedule: Q01DX Z (ip), vehicle: saline
  survivor count: 0 of 6
dose: 64.0 mg/kg/injection, schedule: Q01DX Z (ip), vehicle: saline
  survivor count: 0 of 6

## CSc1ncnc2c1ncn2C1OC(CO)C(O)C1O (configuration not stated)
dose: 5.0 mg/kg/injection, schedule: Q01DX010 (ip), vehicle: saline
  T/C: 126 % of control
[1]
  T/C: 141 % of control
dose: 11.0 mg/kg/injection, schedule: Q01DX Z (ip), vehicle: saline
  T/C: 137 % of control
dose: 12.5 mg/kg/injection, schedule: Q01DX010 (ip), vehicle: saline
  T/C: 148 % of control
dose: 22.0 mg/kg/injection, schedule: Q01DX Z (ip), vehicle: saline
  T/C: 147 % of control
dose: 32.0 mg/kg/injection, schedule: Q01DX010 (ip), vehicle: saline
  survivor count: 5 of 6
dose: 44.0 mg/kg/injection, schedule: Q01DX Z (ip), vehicle: saline
  T/C: 138 % of control
dose: 100.0 mg/kg/injection, schedule: Q01DX Z (ip), vehicle: saline
  survivor count: 0 of 6
